The experiment relates to mice, LPC-1 plasma cell tumor ip, median survival T/C. Nature of the experiment: NCI In Vivo Anticancer Drug Screen. Data for tumor model Lieberman Plasma Cell No. 1 (LPC-1) (intraperitoneal) in unknown mice. The conditions noted are these: T/C endpoint: median survival time, higher T/C = longer survival. The method, then:
The antitumor activity of compounds was measured in mice bearing transplantable tumors. Survival or tumor size were measured and the results are expressed as the measurement made in the treated group (T) divided by the measurement made in the vehicle treated control group (C). The tumor model used in this assay is Lieberman Plasma Cell No. 1 (LPC-1) (intraperitoneal) in unknown mice

Where [1] appears, read: dose: 10.0 mg/kg/injection, schedule: Q01DX028 (sc), vehicle: carboxymethylcellulose (CMC).
Where [2] appears, read: dose: 120.0 mg/kg/injection, schedule: Q01DX028 (sc), vehicle: carboxymethylcellulose (CMC).
The mark [3] stands for this setting: dose: 0.5 mg/kg/injection, schedule: Q01DX028 (sc), vehicle: saline.
Setting [4] is: dose: 1.0 mg/kg/injection, schedule: Q01DX028 (sc), vehicle: saline.
[5] abbreviates: dose: 4.0 mg/kg/injection, schedule: Q01DX028 (sc), vehicle: saline.
[6] abbreviates: dose: 100.0 mg/kg/injection, schedule: Q01DX028 (sc), vehicle: steroid suspending solution.
[7] abbreviates: dose: 50.0 mg/kg/injection, schedule: Q01DX028 (sc), vehicle: carboxymethylcellulose (CMC).

The list is a part of this screen's results and no random one: it gathers tests that were run many times, whatever their T/C, doses with no T/C, and many T/C values between a quarter and a half above the control. Further doses and runs are listed elsewhere. T/C is the treated group as % of the vehicle group. Some doses have a count of surviving animals in place of a T/C: the source holds a T/C of zero for them, seemingly a mark for toxic or unscored doses. Some survivor counts are full or nearly so, which does not show that the dose was tolerated: the source hardly ever lists a survival T/C far under the control, and the zero likely stands for such cases as well. Counts of survivors are from the toxicity check (mostly the fifth day) where no day follows; animals may have died later. Schedule codes are those of the source, read here as Q, the interval in days (D) or hours (H), X, the number of doses. Where survival is the endpoint, the PubChem record calls one and a half times the control and up active, and a quarter to a half above the control has no call in these data; cut-offs in other NCI protocols can differ. Some T/C values are followed by the survivors on the day toxicity was checked, most often the fifth; where none is given, no animal had died by that day.

`CS(=O)(=O)OCCN(CCOS(C)(=O)=O)c1ccc(C(=O)O)cc1`: the T/C is 144 % of control [9 of 10 alive] under setting [1]; 147 % of control (dose: 80.0 mg/kg/injection, schedule: Q01DX028 (sc), vehicle: carboxymethylcellulose (CMC)); 126 % of control under setting [2].
`NC(CSC(c1ccccc1)(c1ccccc1)c1ccccc1)C(=O)O` (centres undefined): the T/C (dose: 30.0 mg/kg/injection, schedule: Q01DX028 (sc), vehicle: saline) is 129 % of control [7 of 8 alive].
For the compound `CS(=O)(=O)OCCN(CCOS(C)(=O)=O)c1ccc(N=O)cc1`, the T/C is 141 % of control [7 of 8 alive] under setting [3] and 141 % of control [7 of 8 alive] under setting [4]. For the same compound, the survivor count reads like this: under setting [5], 8 of 8; (dose: 9.0 mg/kg/injection, schedule: Q01DX028 (sc), vehicle: saline) 7 of 8.
Take `CS(=O)(=O)OCCN(CCOS(C)(=O)=O)c1ccc(/C=N/Nc2ncnc3nc[nH]c23)cc1`: the T/C by setting is: (dose: 24.0 mg/kg/injection, schedule: Q01DX028 (sc), vehicle: carboxymethylcellulose (CMC)) 142 % of control; (dose: 40.0 mg/kg/injection, schedule: Q03HX056 (sc), vehicle: other) 147 % of control; under setting [2], 141 % of control; (dose: 120.0 mg/kg/injection, schedule: Q01DX028 (sc), vehicle: other) 125 % of control; (dose: 180.0 mg/kg/injection, schedule: Q01DX028 (oral), vehicle: other) 127 % of control; (dose: 180.0 mg/kg/injection, schedule: Q01DX028 (sc), vehicle: other) 144 % of control [7 of 8 alive]. The T/C is, setting by setting: (dose: 270.0 mg/kg/injection, schedule: Q01DX028 (sc), vehicle: carboxymethylcellulose (CMC)) 138 % of control; (dose: 540.0 mg/kg/injection, schedule: Q01DX028 (oral), vehicle: other) 133 % of control.
Regarding `COc1ccc2c(c1)C(C)=CC(C)(C)N2`, under setting [6], the T/C is 132 % of control.
Turning to `CN(Cc1cnc2nc(N)nc(N)c2n1)c1ccc(C(=O)N[C@@H](CCC(=O)O)C(=O)O)cc1`, the T/C (dose: 0.25 mg/kg/injection, schedule: Q01DX028 (sc), vehicle: other) was 125 % of control and the T/C (dose: 0.5 mg/kg/injection, schedule: Q01DX028 (sc), vehicle: other) was 136 % of control. In addition, the survivor count (dose: 2.0 mg/kg/injection, schedule: Q01DX028 (sc), vehicle: other) is on record as 12 of 12.
Take `COC12C(COC(N)=O)C3=C(C(=O)C(C)=C(N)C3=O)N1CC1C2N1C` (centres undefined): the T/C (dose: 1.3 mg/kg/injection, schedule: Q01DX028 (sc), vehicle: saline) was 129 % of control.
`CCOC(=O)C(Cc1ccc(N(CCCl)CCCl)cc1)NC=O` (centres undefined): the T/C (dose: 37.5 mg/kg/injection, schedule: Q01DX028 (sc), vehicle: carboxymethylcellulose (CMC)) was 130 % of control.
Consider `CCOC(=O)c1c[nH]c2ccc(N(CCCl)CCCl)cc12`, for which the T/C (dose: 14.0 mg/kg/injection, schedule: Q01DX015 (sc), vehicle: carboxymethylcellulose (CMC)) is 138 % of control [8 of 10 alive]. Further, the survivor count is given as 6 of 10 (dose: 23.0 mg/kg/injection, schedule: Q01DX015 (sc), vehicle: carboxymethylcellulose (CMC)); 4 of 10 (dose: 39.0 mg/kg/injection, schedule: Q01DX015 (sc), vehicle: carboxymethylcellulose (CMC)); 6 of 10 (dose: 65.0 mg/kg/injection, schedule: Q01DX015 (sc), vehicle: carboxymethylcellulose (CMC)); 8 of 8 (dose: 180.0 mg/kg/injection, schedule: Q01DX028 (sc), vehicle: carboxymethylcellulose (CMC)).
On to `Nc1nncs1`, for which the survivor count reads like this: (dose: 23.0 mg/kg/injection, schedule: Q01DX028 (sc), vehicle: saline) 6 of 10; (dose: 35.0 mg/kg/injection, schedule: Q01DX028 (sc), vehicle: saline) 6 of 10; (dose: 53.0 mg/kg/injection, schedule: Q01DX028 (sc), vehicle: saline) 3 of 10; (dose: 80.0 mg/kg/injection, schedule: Q01DX028 (sc), vehicle: saline) 0 of 10.
As to `CO[C@H](C(=O)[C@@H](O)[C@@H](C)O)[C@@H]1Cc2cc3cc(OC4CC(OC5CC(O)C(O)C(C)O5)C(O)C(C)O4)c(C)c(O)c3c(O)c2C(=O)[C@H]1OC1CC(OC2CC(OC3CC(C)(O)C(O)C(C)O3)C(O)C(C)O2)C(O)C(C)O1` (some centres undefined), the survivor count is 5 of 10 (dose: 0.6 mg/kg/injection, schedule: Q01DX028 (sc), vehicle: saline) and 2 of 10 (dose: 0.8 mg/kg/injection, schedule: Q01DX028 (sc), vehicle: saline).
`O=NN(CCCl)C(=O)NC1CCCCC1`: the T/C under setting [1] was 129 % of control; the T/C (dose: 14.0 mg/kg/injection, schedule: Q01DX028 (sc), vehicle: carboxymethylcellulose (CMC)) is 129 % of control; the T/C (dose: 33.0 mg/kg/injection, schedule: Q01DX028 (sc), vehicle: carboxymethylcellulose (CMC)) was 131 % of control [9 of 10 alive]. Also, under setting [7], the survivor count is reported as 6 of 10.
For the compound `S=C(N=Nc1ccccc1)NNc1ccccc1`, the survivor count is, setting by setting: (dose: 25.0 mg/kg/injection, schedule: Q01DX028 (sc), vehicle: carboxymethylcellulose (CMC)) 6 of 10; under setting [7], 4 of 8; (dose: 75.0 mg/kg/injection, schedule: Q01DX028 (sc), vehicle: carboxymethylcellulose (CMC)) 6 of 10; (dose: 100.0 mg/kg/injection, schedule: Q01DX028 (sc), vehicle: carboxymethylcellulose (CMC)) 4 of 10.
Regarding `CNNCc1ccc(C(=O)NC(N)=O)cc1`, the survivor count (dose: 400.0 mg/kg/injection, schedule: Q01DX028 (sc), vehicle: saline) is reported as 7 of 12.
`COC1CC=C2CCN3CCC4=C(CC(=O)OC4)C23C1` (centres undefined): the survivor count is 3 of 8 under setting [3]; 5 of 8 under setting [4]; 3 of 8 (dose: 2.0 mg/kg/injection, schedule: Q01DX028 (sc), vehicle: saline); 4 of 8 under setting [5].
As for `CC1(C)CC(C)(c2ccc(O)cc2)c2ccccc2O1` (centres undefined), the T/C under setting [6] is 138 % of control.
On to `NC(Cc1ccc(N(CCCl)CCCl)cc1)C(=O)O` (centres undefined), for which the T/C reads like this: (dose: 0.5 mg/kg/injection, schedule: Q01DX028 (sc), vehicle: methylcellulose (MC)) 129 % of control; (dose: 1.0 mg/kg/injection, schedule: Q01DX028 (sc), vehicle: methylcellulose (MC)) 148 % of control. Moreover, the survivor count (dose: 16.0 mg/kg/injection, schedule: Q01DX028 (sc), vehicle: methylcellulose (MC)) was 10 of 10.
Take `O=c1ccc2cc(O)c(O)cc2o1`: the T/C (dose: 16.0 mg/kg/injection, schedule: Q01DX028 (sc), vehicle: steroid suspending solution) is 138 % of control. For the setting “dose: 124.0 mg/kg/injection, schedule: Q01DX028 (sc), vehicle: steroid suspending solution”, the survivor count is 5 of 10.
Turning to `Cn1cnc([N+](=O)[O-])c1Sc1nc(N)nc2nc[nH]c12`, the T/C by setting is: (dose: 2.0 mg/kg/injection, schedule: Q01DX028 (sc), vehicle: carboxymethylcellulose (CMC)) 142 % of control [9 of 10 alive]; (dose: 3.0 mg/kg/injection, schedule: Q01DX028 (sc), vehicle: carboxymethylcellulose (CMC)) 142 % of control [8 of 10 alive].

For the origin of these results see PubChem BioAssay AID344 (DTP/NCI, 2004).
